## Results from one PubChem assay

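A cell-based luciferase reporter for ATXN2 expression, read by light output at 24 h, with a viability multiplex. Compounds were tested as a dilution series from about 0.0037 to 57 µM. The number is the fitted half-maximal inhibitory concentration (AC50); a lower value means a more potent inhibitor. Calls come from curve class and activity score: actives score 40–100, while inconclusive compounds (weak, partial, poorly fitted or single-point curves) score 1–39.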

Values are in nM. Every entry below has the call inconclusive. These entries are mostly ones the record files as inconclusive; other results of the assay are not listed here. A potency from a partial, single-point or poor curve is only a rough figure. Activity scores are not listed here.

SMILES: COc1ccc(C(=O)c2c(C)c3ccccc3n2CC(O)CNC(C)C)cc1 (stereo not drawn)
Potency (nM): 28183
remark: inhibitor, single point

SMILES: O=c1cc(C(F)(F)F)[nH]c2ccc(C(F)(F)F)cc12
Potency (nM): 3548
remark: inhibitor, single point

SMILES: CCc1ccc(-c2cc(C(F)(F)F)n3nc(C(=O)Nc4cnn(Cc5ccc(C)cc5)c4)cc3n2)s1
Potency (nM): 19952
remark: inhibitor, partial curve, poor fit

SMILES: CC(C)NC1CCC(Nc2ccnc3cc(Cl)ccc23)CC1 (stereo not drawn)
Potency (nM): 14125
remark: inhibitor, partial curve, poor fit

SMILES: CCOC(=O)c1ccc(/C=C2/C=C(c3ccccc3)N(c3ccc(Cl)c(C(=O)O)c3)C2=O)cc1
Potency (nM): 28183
remark: inhibitor, partial curve, poor fit

SMILES: C=CCN1C=CC(=O)[C@@H](OC(=O)Nc2ccc(Br)cc2)[C@H]1c1ccccc1Br
Potency (nM): 6310
remark: inhibitor, single point

SMILES: Cc1nc2ccccc2c(=O)n1/N=C/c1cc(Br)ccc1O
Potency (nM): 31622
remark: inhibitor, single point

SMILES: COc1ccc(N2CCN(c3nc(NCCc4ccc(OC)c(OC)c4)nc(OC)n3)CC2)cc1
Potency (nM): 25118
remark: inhibitor, partial curve, poor fit

SMILES: O=C(Nc1cccc2ccccc12)OC1C=CS(=O)(=O)C1 (stereo not drawn)
Potency (nM): 3981
remark: inhibitor, partial curve

SMILES: CCCCOc1ccccc1NC(=O)c1scc2c1OCCO2
Potency (nM): 1778
remark: inhibitor, partial curve, poor fit

SMILES: CN(Cc1ccccc1)C(=O)c1ccc(NC(=O)C2CCN(C(=O)OC(C)(C)C)CC2)cc1
Potency (nM): 8912
remark: inhibitor, partial curve, poor fit

SMILES: CCc1nc2c(OCc3ccc(Cl)cc3)cccn2c1N(C=O)Cc1ccc(OC)cc1
Potency (nM): 31622
remark: inhibitor, single point

SMILES: Cc1nc2ncnn2c(N2CCN(c3cccc(C(F)(F)F)c3)CC2)c1C
Potency (nM): 2239
remark: inhibitor, partial curve

SMILES: O=C(Nc1ccc(N2CCN(C(=O)c3ccco3)CC2)c(Cl)c1)c1c(F)c(F)c(F)c(F)c1F
Potency (nM): 31622
remark: inhibitor, partial curve, poor fit

SMILES: CCn1c(C)nc2cc(C(=O)N/N=C/c3cccc(OC)c3O)ccc21
Potency (nM): 2818
remark: inhibitor, partial curve

SMILES: Cc1c(C(=O)NCc2ccc(F)cc2)sc(=O)n1Cc1ccc(Cl)c(Cl)c1
Potency (nM): 22387
remark: inhibitor, single point

SMILES: O=C(Nc1ccccc1NC(=O)NC1CCCCC1)NC1CCCCC1
Potency (nM): 31622
remark: inhibitor, single point

SMILES: CCC(=O)OC1(C(C)=O)CCC2C3CCC4=CC(=O)CCC4(C)C3CCC21C (stereo not drawn)
Potency (nM): 8912
remark: inhibitor, single point

SMILES: O=C1NC(=O)C2(CCCc3ccc(N(CCCl)CCCl)cc32)N1 (stereo not drawn)
Potency (nM): 4467
remark: inhibitor, partial curve, poor fit

For reference, 2 entries once more:

| SMILES | Potency (nM) | remark |
|---|---|---|
| `O=C(Nc1cccc2ccccc12)OC1C=CS(=O)(=O)C1` (stereo not drawn) | 3981 | inhibitor, partial curve |
| `O=C(Nc1ccc(N2CCN(C(=O)c3ccco3)CC2)c(Cl)c1)c1c(F)c(F)c(F)c(F)c1F` | 31622 | inhibitor, partial curve, poor fit |

The results are deposited in PubChem (AID1745848; NCATS, 2022).